# The inconclusive results got no clear call from the source; some entries with a clear call stand among them for comparison. A potency beside an inconclusive call is a rough fit, not a confirmed value. The source made the active and inactive calls. Rule for the calls: active = hit-call score of the fitted dose curve at least 0.9, where 1 is the maximum; inconclusive = response in the unintended direction; inactive = score below 0.9.
# Test: Tanguay_ZF_120hpf_TRUN_legacy: (Legacy) Oregon State University Tanguay Lab 120 Hour Post-fertilization zebrafish Assay for Truncated Body (AID 2283655)
# How it was run: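 Single dechorionated zebrafish embryos received test chemical from 6 hpf in 0.64% DMSO, kept at 28C. At 120 hpf, brightfield inspection noted any truncated body.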
SMILES,AC50,outcome
CN1CCN(Cc2cc(-c3ccc4[nH]c(=O)oc4c3)co2)[C@@H](c2ccc(F)cc2)C1,active: 16.2 µM,–
O=C(O)C1(C(=O)Nc2ccc(Cl)cc2Cl)CC1,–,inactive
Cc1ccc(N)cc1O,inconclusive: 0.0872 µM,–
CN(C)CCCN(C)CCCN(C)C,inconclusive: 0.758 µM,–
Cc1nccn1-c1ccc(Sc2cccc(C3(C(N)=O)CCOCC3)c2)cc1,–,inactive
OCC(CO)(CO)CO,–,inactive
Clc1cc(Cl)c2c(c1)N=C1CCCCCN1C2,inconclusive: 47.7 µM,–
O=C(O)Cn1c(=O)n(Cc2ccc(Br)cc2F)c(=O)c2ccc(Cl)cc21,–,inactive

# 2 consecutive records out of the list so far:
SMILES,AC50,outcome
Cc1ccc(N)cc1O,inconclusive: 0.0872 µM,–
CN(C)CCCN(C)CCCN(C)C,inconclusive: 0.758 µM,–

# From PubChem BioAssay (EPA / NIEHS)
